Measured values reported in PubChem BioAssay AID2685 (National Center for Advancing Translational Sciences (NCATS), 2010).
The list shows a part of the results. Further columns of the screen follow, without active or inactive calls. Most of these compounds were active or inconclusive in the main read-out, so they are no random draw. Words in brackets tell the shape of the fitted curve; partial curves, single points and poor fits give uncertain potencies.

Experiment: qHTS Assay for Lipid Storage Modulators in Drosophila S3 Cells;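 as to cell number change: cells counted by Cell Tracker Red CMTPX staining in the red channel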
Settings: BODIPY lipid droplet fluorescence, 18-24 h; for cell number change: measured here: cell count max response, cells fed with added oleic acid
Procedure, shortened: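 Drosophila S3 cells got compounds at several concentrations plus oleic acid (400 uM solution). Laser-scanning cytometry with 488 nm excitation read lipid droplets at 500-530 nm and cells at 575-640 nm. Percent activity was relative to 20 uM Triacsin C.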

[1] = measured here: cell number channel AC50, cells fed with added oleic acid
[2] = measured here: lipid fluorescence (Fed channel) AC50, cells fed with added oleic acid

| SMILES | cell number change [%] | AC50 [1] | AC50 [2] |
| --- | --- | --- | --- |
| CCOC(=O)C1SC2(C(F)(F)C(F)F)CC1(O)c1c(c(OC)c3occc3c1OC)O2 (stereo not drawn) | -9.56 | – | – |
| COC(=O)C1=C(c2ccc(OC)c(OC)c2)C[C@@H]2CC[C@H]1N2C(=O)N1CCC(O)CC1 | -48.7 | 32.6 µM [falling, single point] | 29.1 µM [falling, single point] |
| COC(=O)C1=C(c2cccc(C#N)c2)C[C@@H]2CC[C@H]1N2C(=O)N1CCC(C)CC1 | -8.66 | – | 6.51 µM [rising, single point] |
| Cc1cccc(N2C(=O)NC(=O)/C(=C\c3ccc4c(c3)CCCN4Cc3ccccc3)C2=O)c1 | 4.55 | – | – |
| Cc1cccc(CNCCc2c[nH]c3ccccc23)c1 | -44.2 | 18.4 µM [falling, single point] | – |
| c1ccc2c(CNC3CCCCCC3)c[nH]c2c1 | -34.3 | 29.1 µM [falling, single point] | 29.1 µM [falling, single point] |
| O=C(O)Cn1cc(/C=C2\C(=O)NC(=O)N(Cc3ccco3)C2=O)c2ccccc21 | 13.3 | – | – |
| CCOP(=S)(OCC)Oc1nc(Cl)c(Cl)cc1Cl | -31.9 | 2.06 µM [falling, partial curve] | – |
| CN1CCc2c(c(N3CCCCC3)nc3n[nH]c(N)c23)C1 | -8.86 | – | 25.9 µM [falling, partial curve] |
| CCCCCn1c(=O)c(C(=O)NCc2ccccc2Cl)c(O)c2ccccc21 | 10.9 | – | 6.51 µM [rising, single point] |
| O=C(O)C(O)(c1ccccc1)C1CCCC1 (stereo not drawn) | -7.94 | – | – |
| O=C1Nc2ccc(Br)cc2C(c2ccc(Cl)cc2)=NC1O (stereo not drawn) | -8.36 | – | 6.51 µM [rising, single point] |
| COC(=O)C1=C(c2ccc(F)cc2F)C[C@@H]2CC[C@H]1N2C(=O)NCC1CC1 | 5.17 | – | 4.11 µM [rising, single point] |
| Cc1ccc(NC(=O)CCNC(=O)N2C[C@H]3C[C@@H](C2)c2cccc(=O)n2C3)c(C)c1 | 6.98 | – | – |
| CCOc1ccccc1C1SCC(=O)Nc2c1c(=O)[nH]n2C(CC)CC (stereo not drawn) | 43.6 | 16.4 µM [rising, single point] | 16.4 µM [rising, single point] |
| CCN(CC)C(=O)c1ccc(NC(=O)c2cccc(F)c2)cc1 | 12.7 | – | 14.6 µM [falling, partial curve, poor fit] |

| SMILES | cell number change [%] | AC50 [1] | AC50 [2] |
| --- | --- | --- | --- |
| CC(=NCC1CCCO1)c1c(O)n(C2CCCCC2)c(=O)[nH]c1=O (stereo not drawn) | – | – | 0.82 µM [falling, single point] |
| O=C1CC(=O)N(Cc2ccccc2)C(=S)N1 | 1.9 | – | – |
| COc1ccc(NC2=NCC(C)S2)cc1 (stereo not drawn) | 0.465 | 6.51 µM [falling, single point] | 6.51 µM [falling, single point] |
| O=C(CN1CC=C(c2ccccc2)CC1)Nc1cc(Cl)ccc1Cl | 11.4 | – | 14.6 µM [rising, partial curve, poor fit] |
| CC/C(=N\N1CCCCCC1)c1c(O)n(-c2ccc(C)cc2)c(=O)[nH]c1=O | -13.8 | – | 20.6 µM [falling, single point] |
| NCCc1ccc(S(N)(=O)=O)cc1 | -19.4 | – | 29.1 µM [falling, single point] |
| COc1ccc2c(c1OC)C(=O)O[C@H]2[C@@H]1c2cc3c(cc2CCN1C)OCO3 | 37.4 | 3.66 µM [rising, full curve] | 1.84 µM [rising, full curve] |
| Cc1cc(OCC(=O)N2CCC(C(=O)NCC(C)C)CC2)c2c3c(c(=O)oc2c1)CCCC3 | 1.83 | – | 20.6 µM [rising, single point] |
| CC(=O)Nc1ccc(CC(=O)N2CCN(Cc3ccccc3)CC2)cc1 | 8.11 | – | 0.58 µM [falling, single point] |
| O=C1NC(=O)C(=Cc2ccc(OCCOc3ccc([N+](=O)[O-])cc3)cc2)C(=O)N1 | 12.6 | – | – |
| CCCCn1c(O)c(C=Nc2c(C)n(C)n(-c3ccccc3)c2=O)c(=O)[nH]c1=O | 1.43 | – | – |
| CCCN1CCO[C@@H]2c3cc(O)ccc3OC[C@H]21 | -38.3 | 25.9 µM [falling, single point] | – |
| COc1ccc(C2SCC(=O)Nc3c2c(C)nn3C2CCOC(C)(C)C2)cc1OC (stereo not drawn) | – | – | 25.9 µM [rising, single point] |
| CN1C(=O)N(C)C(=O)C2(Cc3c(nc4ccccn4c3=O)N3CCC(Cc4ccccc4)CC32)C1=O (stereo not drawn) | 11.4 | – | 1.3 µM [rising, full curve, poor fit] |
| COC(=O)C1=C(c2cccc(OCc3ccccc3)c2)C[C@@H]2CC[C@H]1N2C(=O)NCc1ccc(C(F)(F)F)cc1 | -30.9 | 32.6 µM [falling, single point] | 29.1 µM [falling, single point] |

Three compounds out of the list, sorted by molecular weight, falling.

| SMILES | cell number change [%] | AC50 [1] | AC50 [2] |
| --- | --- | --- | --- |
| CN1C(=O)N(C)C(=O)C2(Cc3c(nc4ccccn4c3=O)N3CCC(Cc4ccccc4)CC32)C1=O (stereo not drawn) | 11.4 | – | 1.3 µM [rising, full curve, poor fit] |
| Cc1cc(OCC(=O)N2CCC(C(=O)NCC(C)C)CC2)c2c3c(c(=O)oc2c1)CCCC3 | 1.83 | – | 20.6 µM [rising, single point] |
| COc1ccc2c(c1OC)C(=O)O[C@H]2[C@@H]1c2cc3c(cc2CCN1C)OCO3 | 37.4 | 3.66 µM [rising, full curve] | 1.84 µM [rising, full curve] |
